Experimental data taken from patent publication US12521403B2, “Compositions for the treatment of chronic vulval and perineal pain and symptoms and conditions associated therewith” (TA Pharma Pty Limited, priority 2016, dated 2026).
The name of at least one read-out is uncertain.

Test: Dissolution of estriol in solvents for the organic phase of the organogel
Type: physicochemical
Details: 50/50 mix of diethylene glycol monoethyl ether and propylene glycol
Procedure: The ratio of propylene glycol to LIP was 4:10. For the aqueous phase, amitriptyline HCL was dissolved in water, then PLURONIC® F-127 was added to give a 20% PLURONIC® solution. The two phases were mixed using a syringe to syringe transfer method which produce a relatively high shear mixing. The ratio of organic to aqueous phases was 1:2. This produced a stable organogel with final concentrations of 300 mcg/g estriol and 0.5% w/w amitriptyline. Stability may be increased by the addition of potassium sorbate.
To increase the dissolution of the estriol in the organic phase, and thereby improve bioavailability, a combination of solubiliser (diethylene glycol monoethyl ether) and propylene glycol was employed. […] This was then blended with the LIP to produce the organic phase.

## C[C@]12CC[C@@H]3c4ccc(O)cc4CC[C@H]3[C@@H]1C[C@@H](O)[C@@H]2O [Estriol]
  dissolution in solubiliser/propylene glycol mix: complete dissolution
